Measured values as given in PMC4488268.
Results are given in words; binding and its absence hold for the method and conditions named. For some of these results: In cells and extracts the contact can be indirect. Some entries that bind do so weakly or less than the wild type. For some of these results: Tags and fused reporters may be left off the sequences shown.

T1: full-length NLRP7 L398R for co-immunoprecipitation (human) (UniProt Q8WX94)
T1 sequence: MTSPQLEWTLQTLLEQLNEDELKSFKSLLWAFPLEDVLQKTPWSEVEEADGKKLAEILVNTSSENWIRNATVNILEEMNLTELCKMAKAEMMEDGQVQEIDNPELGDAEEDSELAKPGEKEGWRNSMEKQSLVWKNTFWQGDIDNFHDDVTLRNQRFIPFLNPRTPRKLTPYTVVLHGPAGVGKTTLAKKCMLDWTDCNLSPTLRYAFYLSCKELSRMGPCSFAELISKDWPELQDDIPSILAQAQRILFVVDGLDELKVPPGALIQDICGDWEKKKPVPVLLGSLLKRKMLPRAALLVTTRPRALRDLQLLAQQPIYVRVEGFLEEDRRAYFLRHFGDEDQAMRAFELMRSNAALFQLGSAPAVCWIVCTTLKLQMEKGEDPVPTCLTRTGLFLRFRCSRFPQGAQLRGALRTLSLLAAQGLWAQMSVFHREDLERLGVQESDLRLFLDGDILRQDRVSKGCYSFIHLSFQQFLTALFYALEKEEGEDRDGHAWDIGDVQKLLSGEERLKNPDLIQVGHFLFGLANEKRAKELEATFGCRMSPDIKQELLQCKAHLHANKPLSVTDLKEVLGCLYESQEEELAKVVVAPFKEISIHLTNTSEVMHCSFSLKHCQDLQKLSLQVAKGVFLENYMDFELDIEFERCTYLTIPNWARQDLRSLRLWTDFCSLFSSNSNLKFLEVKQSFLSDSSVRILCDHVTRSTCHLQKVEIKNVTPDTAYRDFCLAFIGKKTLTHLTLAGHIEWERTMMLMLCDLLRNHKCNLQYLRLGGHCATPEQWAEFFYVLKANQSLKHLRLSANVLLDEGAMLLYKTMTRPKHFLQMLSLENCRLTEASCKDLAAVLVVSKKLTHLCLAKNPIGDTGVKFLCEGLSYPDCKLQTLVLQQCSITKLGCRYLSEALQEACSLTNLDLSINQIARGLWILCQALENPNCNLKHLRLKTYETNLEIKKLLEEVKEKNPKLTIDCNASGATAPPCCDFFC

T2: full-length ZBTB16 fused to the GAL4 DNA-binding domain (human) (UniProt Q05516)
T2 sequence: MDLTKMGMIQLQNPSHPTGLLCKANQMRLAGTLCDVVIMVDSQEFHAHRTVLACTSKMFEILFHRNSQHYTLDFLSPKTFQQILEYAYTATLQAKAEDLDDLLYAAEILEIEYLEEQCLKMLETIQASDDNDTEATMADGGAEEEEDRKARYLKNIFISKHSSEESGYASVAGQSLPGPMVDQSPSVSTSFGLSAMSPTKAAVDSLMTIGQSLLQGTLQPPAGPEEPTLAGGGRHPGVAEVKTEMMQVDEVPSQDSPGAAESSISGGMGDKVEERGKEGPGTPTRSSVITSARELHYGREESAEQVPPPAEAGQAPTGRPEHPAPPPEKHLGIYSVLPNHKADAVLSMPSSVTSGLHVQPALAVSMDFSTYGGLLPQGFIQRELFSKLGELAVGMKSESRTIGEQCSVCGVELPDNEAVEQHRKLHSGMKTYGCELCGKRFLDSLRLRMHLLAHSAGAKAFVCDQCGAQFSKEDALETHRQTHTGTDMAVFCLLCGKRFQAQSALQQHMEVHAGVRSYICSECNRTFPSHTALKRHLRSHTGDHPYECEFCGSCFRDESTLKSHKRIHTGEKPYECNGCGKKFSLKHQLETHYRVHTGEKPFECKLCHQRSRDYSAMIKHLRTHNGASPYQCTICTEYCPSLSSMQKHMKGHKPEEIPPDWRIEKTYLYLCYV

T3: full-length NLRP7 bait of the LexA-based yeast two-hybrid screen (human) (UniProt Q8WX94)
T3 sequence: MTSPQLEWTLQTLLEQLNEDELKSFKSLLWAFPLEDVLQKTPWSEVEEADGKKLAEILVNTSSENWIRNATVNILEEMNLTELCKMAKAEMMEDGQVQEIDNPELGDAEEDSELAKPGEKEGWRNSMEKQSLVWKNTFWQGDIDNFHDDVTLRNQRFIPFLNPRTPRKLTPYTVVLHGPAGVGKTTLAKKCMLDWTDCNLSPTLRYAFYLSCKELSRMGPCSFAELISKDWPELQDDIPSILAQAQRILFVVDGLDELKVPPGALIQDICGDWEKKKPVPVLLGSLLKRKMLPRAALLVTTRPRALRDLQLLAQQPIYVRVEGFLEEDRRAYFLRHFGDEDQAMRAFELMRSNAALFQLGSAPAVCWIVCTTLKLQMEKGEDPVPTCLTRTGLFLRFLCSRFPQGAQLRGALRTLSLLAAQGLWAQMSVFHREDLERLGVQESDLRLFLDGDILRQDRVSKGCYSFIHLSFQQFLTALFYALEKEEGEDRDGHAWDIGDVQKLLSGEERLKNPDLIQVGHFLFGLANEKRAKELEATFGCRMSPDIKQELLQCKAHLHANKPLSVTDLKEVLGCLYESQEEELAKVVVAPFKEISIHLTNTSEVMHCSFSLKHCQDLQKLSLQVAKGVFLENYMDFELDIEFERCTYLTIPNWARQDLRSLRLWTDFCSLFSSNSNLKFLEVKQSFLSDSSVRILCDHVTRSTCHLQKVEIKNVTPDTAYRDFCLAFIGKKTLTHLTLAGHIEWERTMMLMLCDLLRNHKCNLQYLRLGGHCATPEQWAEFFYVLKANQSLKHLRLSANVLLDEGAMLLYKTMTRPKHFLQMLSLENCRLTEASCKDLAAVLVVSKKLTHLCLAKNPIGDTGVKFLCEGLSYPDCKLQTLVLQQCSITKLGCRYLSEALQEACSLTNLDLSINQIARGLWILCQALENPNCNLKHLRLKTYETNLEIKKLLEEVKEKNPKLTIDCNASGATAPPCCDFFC


Legend:
[1] = target: T1, full-length NLRP7 L398R for co-immunoprecipitation (human); experiment: co-IP; data not shown; ZBTB16 with mutated full-length NLRP7 constructs
[2] = target: T2, full-length ZBTB16 fused to the GAL4 DNA-binding domain (human); experiment: two-hybrid; … GAL4 system (Clontech), yeast strain AH109; full-length ZBTB16 on the GAL4 DNA-binding domain (pGBKT7) as bait, NLRP7 constructs on the GAL4 activation domain (pGADT7); growth on SDhigh
[3] = target: T3, full-length NLRP7 bait of the LexA-based yeast two-hybrid screen (human); experiment: two-hybrid; LexA-based DUALhybrid screen (Dualsystems); full-length NLRP7 as bait against a human ovarian cDNA library (Clontech Cat#638822); ß-galactosidase activity and growth on SDhigh (SD-ade)

| binding [2] | Binder | other results |
| --- | --- | --- |
|  | full-length ZBTB16, Myc-tagged (protein, UniProt Q05516 1-673) MDLTKMGMIQLQNPSHPTGLLCKANQMRLAGTLCDVVIMVDSQEFHAHRTVLACTSKMFEILFHRNSQHYTLDFLSPKTFQQILEYAYTATLQAKAEDLDDLLYAAEILEIEYLEEQCLKMLETIQASDDNDTEATMADGGAEEEEDRKARYLKNIFISKHSSEESGYASVAGQSLPGPMVDQSPSVSTSFGLSAMSPTKAAVDSLMTIGQSLLQGTLQPPAGPEEPTLAGGGRHPGVAEVKTEMMQVDEVPSQDSPGAAESSISGGMGDKVEERGKEGPGTPTRSSVITSARELHYGREESAEQVPPPAEAGQAPTGRPEHPAPPPEKHLGIYSVLPNHKADAVLSMPSSVTSGLHVQPALAVSMDFSTYGGLLPQGFIQRELFSKLGELAVGMKSESRTIGEQCSVCGVELPDNEAVEQHRKLHSGMKTYGCELCGKRFLDSLRLRMHLLAHSAGAKAFVCDQCGAQFSKEDALETHRQTHTGTDMAVFCLLCGKRFQAQSALQQHMEVHAGVRSYICSECNRTFPSHTALKRHLRSHTGDHPYECEFCGSCFRDESTLKSHKRIHTGEKPYECNGCGKKFSLKHQLETHYRVHTGEKPFECKLCHQRSRDYSAMIKHLRTHNGASPYQCTICTEYCPSLSSMQKHMKGHKPEEIPPDWRIEKTYLYLCYV | binding [1]: binds |
| binds | full-length ZBTB16 fused to the GAL4 DNA-binding domain (protein, UniProt Q05516 1-673) MDLTKMGMIQLQNPSHPTGLLCKANQMRLAGTLCDVVIMVDSQEFHAHRTVLACTSKMFEILFHRNSQHYTLDFLSPKTFQQILEYAYTATLQAKAEDLDDLLYAAEILEIEYLEEQCLKMLETIQASDDNDTEATMADGGAEEEEDRKARYLKNIFISKHSSEESGYASVAGQSLPGPMVDQSPSVSTSFGLSAMSPTKAAVDSLMTIGQSLLQGTLQPPAGPEEPTLAGGGRHPGVAEVKTEMMQVDEVPSQDSPGAAESSISGGMGDKVEERGKEGPGTPTRSSVITSARELHYGREESAEQVPPPAEAGQAPTGRPEHPAPPPEKHLGIYSVLPNHKADAVLSMPSSVTSGLHVQPALAVSMDFSTYGGLLPQGFIQRELFSKLGELAVGMKSESRTIGEQCSVCGVELPDNEAVEQHRKLHSGMKTYGCELCGKRFLDSLRLRMHLLAHSAGAKAFVCDQCGAQFSKEDALETHRQTHTGTDMAVFCLLCGKRFQAQSALQQHMEVHAGVRSYICSECNRTFPSHTALKRHLRSHTGDHPYECEFCGSCFRDESTLKSHKRIHTGEKPYECNGCGKKFSLKHQLETHYRVHTGEKPFECKLCHQRSRDYSAMIKHLRTHNGASPYQCTICTEYCPSLSSMQKHMKGHKPEEIPPDWRIEKTYLYLCYV |  |
| binds | full-length NLRP7 L398R fused to the GAL4 activation domain (protein, UniProt Q8WX94 1-980) MTSPQLEWTLQTLLEQLNEDELKSFKSLLWAFPLEDVLQKTPWSEVEEADGKKLAEILVNTSSENWIRNATVNILEEMNLTELCKMAKAEMMEDGQVQEIDNPELGDAEEDSELAKPGEKEGWRNSMEKQSLVWKNTFWQGDIDNFHDDVTLRNQRFIPFLNPRTPRKLTPYTVVLHGPAGVGKTTLAKKCMLDWTDCNLSPTLRYAFYLSCKELSRMGPCSFAELISKDWPELQDDIPSILAQAQRILFVVDGLDELKVPPGALIQDICGDWEKKKPVPVLLGSLLKRKMLPRAALLVTTRPRALRDLQLLAQQPIYVRVEGFLEEDRRAYFLRHFGDEDQAMRAFELMRSNAALFQLGSAPAVCWIVCTTLKLQMEKGEDPVPTCLTRTGLFLRFRCSRFPQGAQLRGALRTLSLLAAQGLWAQMSVFHREDLERLGVQESDLRLFLDGDILRQDRVSKGCYSFIHLSFQQFLTALFYALEKEEGEDRDGHAWDIGDVQKLLSGEERLKNPDLIQVGHFLFGLANEKRAKELEATFGCRMSPDIKQELLQCKAHLHANKPLSVTDLKEVLGCLYESQEEELAKVVVAPFKEISIHLTNTSEVMHCSFSLKHCQDLQKLSLQVAKGVFLENYMDFELDIEFERCTYLTIPNWARQDLRSLRLWTDFCSLFSSNSNLKFLEVKQSFLSDSSVRILCDHVTRSTCHLQKVEIKNVTPDTAYRDFCLAFIGKKTLTHLTLAGHIEWERTMMLMLCDLLRNHKCNLQYLRLGGHCATPEQWAEFFYVLKANQSLKHLRLSANVLLDEGAMLLYKTMTRPKHFLQMLSLENCRLTEASCKDLAAVLVVSKKLTHLCLAKNPIGDTGVKFLCEGLSYPDCKLQTLVLQQCSITKLGCRYLSEALQEACSLTNLDLSINQIARGLWILCQALENPNCNLKHLRLKTYETNLEIKKLLEEVKEKNPKLTIDCNASGATAPPCCDFFC |  |
|  | ZBTB16 Prey#1 (268–673) from the human ovarian cDNA library (domain or fragment, UniProt Q05516 268-673) MGDKVEERGKEGPGTPTRSSVITSARELHYGREESAEQVPPPAEAGQAPTGRPEHPAPPPEKHLGIYSVLPNHKADAVLSMPSSVTSGLHVQPALAVSMDFSTYGGLLPQGFIQRELFSKLGELAVGMKSESRTIGEQCSVCGVELPDNEAVEQHRKLHSGMKTYGCELCGKRFLDSLRLRMHLLAHSAGAKAFVCDQCGAQFSKEDALETHRQTHTGTDMAVFCLLCGKRFQAQSALQQHMEVHAGVRSYICSECNRTFPSHTALKRHLRSHTGDHPYECEFCGSCFRDESTLKSHKRIHTGEKPYECNGCGKKFSLKHQLETHYRVHTGEKPFECKLCHQRSRDYSAMIKHLRTHNGASPYQCTICTEYCPSLSSMQKHMKGHKPEEIPPDWRIEKTYLYLCYV | binding [3]: binds |
